Where a name gives a salt, the structure may show the parent alone. This is one part of the list. No stated cut-off is given here; in the data, active = 1.25 or more and inactive = the rest. Most values come without repeats; read them as rough.
Tested on: Kcc2-LUC knock-in mouse primary cortical neurons (Kcc2 promoter reporter)
Test: Kcc2 promoter-driven luciferase activity relative to vehicle control (fold of vehicle (ratio)); higher = stronger Kcc2 promoter activation (Kcc2 expression enhancer)
Settings: 100 nM; 48 h

SMILES	Kcc2 promoter-driven luciferase activity
COC1CN(C)C(=Nc2cccc3ccccc23)S1 (stereo unspecified)	inactive: 0.82
OCCOc1ccc(-c2cc(-c3ccccn3)nc(-c3ccccn3)c2)cc1 [2-[4-(2,6-dipyridin-2-ylpyridin-4-yl)phenoxy]ethanol]	inactive: 0.87
Cc1ccc(NC(=O)c2cc3ccccc3c(N=Nc3ccccc3O)c2O)c(C)c1 [Magon]	inactive: 0.668
Cc1ccc(NC(=O)/C=C/c2ccccc2)c(C)c1 [N-(2,4-dimethylphenyl)-3-phenylacrylamide]	inactive: 0.34
CC(=O)NC1C(OCc2ccccc2)OC(CO)C(O)C1OC(C)C(=O)NC(C(=O)NC(CCC(=O)NCCCCNc1c2ccccc2nc2cccc([N+](=O)[O-])c12)C(N)=O)C(C)C (stereo unspecified)	inactive: 1.18
N[C@@H](CSC(c1ccccc1)(c1ccccc1)c1ccccc1)C(=O)O [S-Trityl cysteine]	inactive: 1.09
CCN(CC)CCOc1ccccc1/C=C/c1noc2ccccc12	inactive: 0.8
O=C1Nc2c(Cl)cc(Cl)cc2C1=N/N=C/c1ccco1	inactive: 1.02
CC(=O)C(NC(=O)C(C)C(O)C(C)NC(=O)C(NC(=O)c1nc(C(CC(N)=O)NCC(N)C(N)=O)nc(N)c1C)C(O[C@@H]1O[C@@H](CO)[C@@H](O)[C@H](O)[C@]1(C)O[C@@H]1OC(CO)[C@H](O)[C@](O)(C(N)=O)[C@H]1O)c1cnc[nH]1)C(=O)NCCC1=NC(c2nc(C(N)=O)cs2)CS1 (stereo partly specified) [Phleomycin]	inactive: 0.78
CN(C)CCCCN1CCc2c(n(C)c3ccccc23)C1=O	inactive: 0.75
Cc1nn(-c2ccccc2)c2c1CC(=O)Nc1ccccc1-2	inactive: 0.9
CO[C@H]1/C=C\C=C(/C)C(=O)NC2=CC(=O)C(N)=C(C[C@@H](C)C[C@H](OC)[C@H](O)[C@@H](C)/C=C(\C)[C@@H]1OC(N)=O)C2=O [Geldanamycin, 17-amino-17-demethoxy-]	active: 1.43
CO[C@H]1/C=C\C=C(/C)C(=O)NC2=CC(=O)C(N)=C(C[C@@H](C)C[C@H](OC)[C@H](O)[C@@H](C)/C=C(\C)[C@@H]1OC(N)=O)C2=O	active: 2.86
COC(=O)[C@@H]1[C@H]2C[C@@H]3c4[nH]c5ccccc5c4CCN3C[C@@H]2CC[C@@H]1O [Pseudoyohimbine]	inactive: 0.908
Clc1cc2nc[nH]c2cc1Cl [5,6-Dichloro-1H-benzimidazole]	inactive: 0.92
C=C1C(=O)OC2/C=C(/CO)[C@@H](OC(C)=O)C[C@H](O)/C(C)=C\[C@@H](OC(=O)[C@@H](C)CC)[C@@H]12 (stereo partly specified) [Eurecurvin]	inactive: 0.91
CCOC(=O)/C=C/c1c(C)[nH]c(=O)[nH]c1=O [Ethyl 3-(6-methyl-2,4-dioxo-1H-pyrimidin-5-yl)prop-2-enoate]	inactive: 0.85
O=c1ccc2nc3ccc(O)cc3oc-2c1 [7-Hydroxy-3H-phenoxazin-3-one]	inactive: 1.21
O=C(CC1(O)C(=O)Nc2c(Cl)ccc(Cl)c21)c1ccc(Cl)cc1Cl (stereo unspecified)	inactive: 1.01
CC1C(=O)CC2C(C)(C)CCCC2(C)C1(O)CCc1ccoc1 (stereo unspecified) [Hispanolone]	inactive: 0.92
OC[C@H]1O[C@@H](n2cnc3c(=S)nc[nH]c32)[C@H](O)[C@@H]1O [6-Mercaptopurine ribonucleoside]	inactive: 0.707
CC1=C\C(O)CC(=O)Cc2nc(co2)C(=O)N2CCC=C2C(=O)OC(C(C)C)C(C)/C=C/C(=O)NC/C=C\1.CCC1NC(=O)C(NC(=O)c2ncccc2O)C(C)OC(=O)C(c2ccccc2)NC(=O)C2CC(=O)CCN2C(=O)C(Cc2ccc(N(C)C)cc2)N(C)C(=O)C2CCCN2C1=O (stereo unspecified) [Mikamycin, B grade]	inactive: 0.91
N#CCCN(c1ccc(C=O)cc1)S(=O)(=O)c1ccccc1 [N-(2-Cyanoethyl)-N-(4-formylphenyl)benzenesulfonamide]	inactive: 1.13
C/C=C(\CCC1NCCc2c1[nH]c1ccccc21)[Si](C)(C)C (stereo unspecified)	active: 1.52
Cn1c(=O)c2nc3sc4c(n3c2n(C)c1=O)C(=O)c1ccccc1C4=O	inactive: 0.54
CCC1=C(C[C@H]2NCCc3cc(OC)c(OC)cc32)C[C@H]2c3cc(OC)c(OC)cc3CCN2C1 [Dehydroemetine hydrochloride]	inactive: 0.67

Rewritten with bars between the fields: part of the list above.
SMILES | Kcc2 promoter-driven luciferase activity
N[C@@H](CSC(c1ccccc1)(c1ccccc1)c1ccccc1)C(=O)O [S-Trityl cysteine] | inactive: 1.09
CCC1=C(C[C@H]2NCCc3cc(OC)c(OC)cc32)C[C@H]2c3cc(OC)c(OC)cc3CCN2C1 [Dehydroemetine hydrochloride] | inactive: 0.67
